Results published in the supplement of paper PMC12823440, “Inhibitors supercharge kinase turnover through native proteolytic circuits” (Nature, 2025).
Counter-ions that a name gives are not always drawn. This is one part of the list. The calls rarely recur for the same compound in another form.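 Kinases were expressed as nanoluciferase fusions in K562 cells and luminescence was read every 4 h between 2 and 18 h as percent of control, DMSO set to 100% and a positive control to 0%. A time point counts as decreased when the signal drops significantly (2 sigma). The hit call is the authors' own, does not follow from the count of time points alone, and its rule is not shown.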

Amino acid sequences for entries named in this document (tags omitted). A change or cut given only in a name is not applied to a line headed by its entry.
UniProt Q16288, whole entry, looked up: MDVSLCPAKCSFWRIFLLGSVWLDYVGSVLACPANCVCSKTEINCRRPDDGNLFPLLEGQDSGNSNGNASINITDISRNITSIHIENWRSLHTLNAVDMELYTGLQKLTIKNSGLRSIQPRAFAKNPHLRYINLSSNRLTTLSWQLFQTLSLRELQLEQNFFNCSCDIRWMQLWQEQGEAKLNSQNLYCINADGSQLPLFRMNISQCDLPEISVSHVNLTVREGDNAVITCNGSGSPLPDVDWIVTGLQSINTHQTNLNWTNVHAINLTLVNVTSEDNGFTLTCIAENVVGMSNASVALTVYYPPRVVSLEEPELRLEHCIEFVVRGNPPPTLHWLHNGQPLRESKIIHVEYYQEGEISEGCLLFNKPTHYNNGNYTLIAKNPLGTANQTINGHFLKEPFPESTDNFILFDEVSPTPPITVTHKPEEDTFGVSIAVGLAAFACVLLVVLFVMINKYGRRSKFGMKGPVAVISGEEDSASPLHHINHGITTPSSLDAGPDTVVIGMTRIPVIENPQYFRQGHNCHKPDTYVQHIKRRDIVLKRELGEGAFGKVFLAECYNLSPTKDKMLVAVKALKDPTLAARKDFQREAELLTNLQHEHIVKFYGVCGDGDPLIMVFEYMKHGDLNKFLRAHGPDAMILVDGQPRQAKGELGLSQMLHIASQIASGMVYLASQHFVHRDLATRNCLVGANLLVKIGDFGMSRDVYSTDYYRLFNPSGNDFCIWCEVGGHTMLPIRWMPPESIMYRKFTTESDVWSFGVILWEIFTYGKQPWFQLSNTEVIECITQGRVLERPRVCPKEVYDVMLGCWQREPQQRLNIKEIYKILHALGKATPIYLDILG
UniProt O96013: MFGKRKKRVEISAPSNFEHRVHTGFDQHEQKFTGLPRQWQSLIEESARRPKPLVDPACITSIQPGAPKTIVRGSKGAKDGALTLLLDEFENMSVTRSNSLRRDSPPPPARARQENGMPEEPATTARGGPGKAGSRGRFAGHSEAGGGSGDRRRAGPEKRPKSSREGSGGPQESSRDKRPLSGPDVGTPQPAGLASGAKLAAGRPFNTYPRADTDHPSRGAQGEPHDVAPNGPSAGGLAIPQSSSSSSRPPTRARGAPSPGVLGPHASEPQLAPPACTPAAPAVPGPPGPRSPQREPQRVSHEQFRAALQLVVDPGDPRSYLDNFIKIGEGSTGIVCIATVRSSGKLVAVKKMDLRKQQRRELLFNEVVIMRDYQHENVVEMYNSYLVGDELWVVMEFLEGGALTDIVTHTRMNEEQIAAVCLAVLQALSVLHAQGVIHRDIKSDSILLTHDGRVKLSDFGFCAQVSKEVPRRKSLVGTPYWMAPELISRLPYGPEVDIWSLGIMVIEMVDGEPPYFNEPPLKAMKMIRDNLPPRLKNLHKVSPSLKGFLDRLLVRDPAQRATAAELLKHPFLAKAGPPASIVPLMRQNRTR
UniProt Q96KB5: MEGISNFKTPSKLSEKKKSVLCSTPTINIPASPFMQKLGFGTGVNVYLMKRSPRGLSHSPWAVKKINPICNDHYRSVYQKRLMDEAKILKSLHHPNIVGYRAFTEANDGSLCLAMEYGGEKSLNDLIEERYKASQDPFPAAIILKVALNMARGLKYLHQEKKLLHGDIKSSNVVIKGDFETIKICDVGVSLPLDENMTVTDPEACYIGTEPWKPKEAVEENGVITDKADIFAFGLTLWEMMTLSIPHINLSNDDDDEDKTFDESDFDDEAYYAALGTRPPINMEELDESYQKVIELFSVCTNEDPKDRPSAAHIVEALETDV
UniProt P09619, whole entry: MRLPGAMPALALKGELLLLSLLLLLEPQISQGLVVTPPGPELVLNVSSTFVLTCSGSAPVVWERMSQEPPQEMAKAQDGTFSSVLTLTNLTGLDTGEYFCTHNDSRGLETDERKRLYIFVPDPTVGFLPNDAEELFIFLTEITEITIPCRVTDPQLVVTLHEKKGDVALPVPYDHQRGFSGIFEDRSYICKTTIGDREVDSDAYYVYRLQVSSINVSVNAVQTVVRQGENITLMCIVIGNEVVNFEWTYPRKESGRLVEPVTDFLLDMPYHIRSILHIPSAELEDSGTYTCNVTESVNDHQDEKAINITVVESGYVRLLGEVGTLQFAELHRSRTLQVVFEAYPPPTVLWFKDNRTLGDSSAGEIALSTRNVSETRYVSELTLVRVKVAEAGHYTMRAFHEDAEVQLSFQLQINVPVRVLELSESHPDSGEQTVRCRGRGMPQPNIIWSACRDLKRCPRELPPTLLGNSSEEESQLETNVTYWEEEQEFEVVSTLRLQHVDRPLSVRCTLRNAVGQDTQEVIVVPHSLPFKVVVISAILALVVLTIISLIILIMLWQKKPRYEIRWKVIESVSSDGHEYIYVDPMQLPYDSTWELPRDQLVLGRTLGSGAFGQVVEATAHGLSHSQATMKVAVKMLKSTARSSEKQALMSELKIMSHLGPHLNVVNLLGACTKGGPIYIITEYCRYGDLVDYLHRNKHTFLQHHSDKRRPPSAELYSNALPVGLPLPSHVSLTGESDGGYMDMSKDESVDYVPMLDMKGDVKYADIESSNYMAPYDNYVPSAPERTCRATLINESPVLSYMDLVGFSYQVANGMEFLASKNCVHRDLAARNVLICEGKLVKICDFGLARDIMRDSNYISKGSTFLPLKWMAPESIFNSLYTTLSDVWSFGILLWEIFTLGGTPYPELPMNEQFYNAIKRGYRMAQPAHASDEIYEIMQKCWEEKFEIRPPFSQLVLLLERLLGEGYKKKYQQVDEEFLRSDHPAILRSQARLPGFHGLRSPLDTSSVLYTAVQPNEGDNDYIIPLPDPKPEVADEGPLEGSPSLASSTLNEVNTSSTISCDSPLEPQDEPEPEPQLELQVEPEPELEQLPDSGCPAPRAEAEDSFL
UniProt P42356, whole entry, looked up: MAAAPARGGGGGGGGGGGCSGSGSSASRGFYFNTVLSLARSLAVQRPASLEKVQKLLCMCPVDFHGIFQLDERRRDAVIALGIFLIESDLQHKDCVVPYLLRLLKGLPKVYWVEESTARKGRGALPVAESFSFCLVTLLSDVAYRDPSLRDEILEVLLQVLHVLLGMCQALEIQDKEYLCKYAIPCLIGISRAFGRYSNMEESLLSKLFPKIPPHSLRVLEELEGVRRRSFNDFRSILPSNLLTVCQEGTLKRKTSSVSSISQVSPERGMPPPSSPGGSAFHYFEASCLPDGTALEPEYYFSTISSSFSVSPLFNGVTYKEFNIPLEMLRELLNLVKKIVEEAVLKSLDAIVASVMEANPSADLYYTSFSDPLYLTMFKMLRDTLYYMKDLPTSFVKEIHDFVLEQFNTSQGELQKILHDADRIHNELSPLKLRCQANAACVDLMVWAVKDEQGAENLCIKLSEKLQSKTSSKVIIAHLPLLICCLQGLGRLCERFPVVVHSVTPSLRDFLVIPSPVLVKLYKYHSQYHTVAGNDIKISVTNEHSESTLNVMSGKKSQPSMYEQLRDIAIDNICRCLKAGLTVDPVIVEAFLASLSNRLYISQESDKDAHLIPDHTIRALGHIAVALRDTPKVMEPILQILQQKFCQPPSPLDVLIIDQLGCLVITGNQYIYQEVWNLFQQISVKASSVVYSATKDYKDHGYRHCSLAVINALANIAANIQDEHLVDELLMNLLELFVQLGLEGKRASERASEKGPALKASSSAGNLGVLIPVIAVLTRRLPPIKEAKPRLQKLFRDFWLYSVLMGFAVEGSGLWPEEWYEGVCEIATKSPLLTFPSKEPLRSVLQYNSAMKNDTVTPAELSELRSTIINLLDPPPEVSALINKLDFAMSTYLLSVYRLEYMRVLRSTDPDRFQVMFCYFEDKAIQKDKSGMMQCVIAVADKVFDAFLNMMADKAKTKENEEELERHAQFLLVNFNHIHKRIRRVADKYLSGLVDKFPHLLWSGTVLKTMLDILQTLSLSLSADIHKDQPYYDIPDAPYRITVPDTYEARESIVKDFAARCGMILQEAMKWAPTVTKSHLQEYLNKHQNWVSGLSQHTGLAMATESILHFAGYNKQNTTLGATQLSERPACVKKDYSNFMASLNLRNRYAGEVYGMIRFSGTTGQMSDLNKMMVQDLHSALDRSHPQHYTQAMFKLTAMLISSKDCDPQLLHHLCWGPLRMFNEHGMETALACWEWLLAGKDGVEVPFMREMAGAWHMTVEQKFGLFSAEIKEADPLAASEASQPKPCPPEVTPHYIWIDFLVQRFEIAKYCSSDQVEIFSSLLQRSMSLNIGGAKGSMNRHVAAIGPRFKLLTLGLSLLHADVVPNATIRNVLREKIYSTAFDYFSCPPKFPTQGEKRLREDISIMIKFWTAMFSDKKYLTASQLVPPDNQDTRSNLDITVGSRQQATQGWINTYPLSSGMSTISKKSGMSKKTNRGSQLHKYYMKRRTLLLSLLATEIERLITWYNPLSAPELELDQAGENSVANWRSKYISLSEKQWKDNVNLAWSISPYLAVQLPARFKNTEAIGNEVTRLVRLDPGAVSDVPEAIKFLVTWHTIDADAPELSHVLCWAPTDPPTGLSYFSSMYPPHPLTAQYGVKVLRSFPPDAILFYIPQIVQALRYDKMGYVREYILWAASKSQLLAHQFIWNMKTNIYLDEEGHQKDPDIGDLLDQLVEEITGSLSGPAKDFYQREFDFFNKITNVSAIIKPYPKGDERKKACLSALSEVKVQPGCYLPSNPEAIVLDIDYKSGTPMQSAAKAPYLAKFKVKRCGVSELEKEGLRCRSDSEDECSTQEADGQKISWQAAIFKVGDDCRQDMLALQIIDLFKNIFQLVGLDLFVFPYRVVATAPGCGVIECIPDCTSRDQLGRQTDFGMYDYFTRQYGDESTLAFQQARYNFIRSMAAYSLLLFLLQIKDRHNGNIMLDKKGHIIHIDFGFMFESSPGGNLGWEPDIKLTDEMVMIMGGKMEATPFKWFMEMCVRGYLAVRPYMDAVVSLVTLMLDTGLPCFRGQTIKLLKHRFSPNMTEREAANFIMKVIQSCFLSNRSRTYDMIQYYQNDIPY
UniProt Q9UBF8: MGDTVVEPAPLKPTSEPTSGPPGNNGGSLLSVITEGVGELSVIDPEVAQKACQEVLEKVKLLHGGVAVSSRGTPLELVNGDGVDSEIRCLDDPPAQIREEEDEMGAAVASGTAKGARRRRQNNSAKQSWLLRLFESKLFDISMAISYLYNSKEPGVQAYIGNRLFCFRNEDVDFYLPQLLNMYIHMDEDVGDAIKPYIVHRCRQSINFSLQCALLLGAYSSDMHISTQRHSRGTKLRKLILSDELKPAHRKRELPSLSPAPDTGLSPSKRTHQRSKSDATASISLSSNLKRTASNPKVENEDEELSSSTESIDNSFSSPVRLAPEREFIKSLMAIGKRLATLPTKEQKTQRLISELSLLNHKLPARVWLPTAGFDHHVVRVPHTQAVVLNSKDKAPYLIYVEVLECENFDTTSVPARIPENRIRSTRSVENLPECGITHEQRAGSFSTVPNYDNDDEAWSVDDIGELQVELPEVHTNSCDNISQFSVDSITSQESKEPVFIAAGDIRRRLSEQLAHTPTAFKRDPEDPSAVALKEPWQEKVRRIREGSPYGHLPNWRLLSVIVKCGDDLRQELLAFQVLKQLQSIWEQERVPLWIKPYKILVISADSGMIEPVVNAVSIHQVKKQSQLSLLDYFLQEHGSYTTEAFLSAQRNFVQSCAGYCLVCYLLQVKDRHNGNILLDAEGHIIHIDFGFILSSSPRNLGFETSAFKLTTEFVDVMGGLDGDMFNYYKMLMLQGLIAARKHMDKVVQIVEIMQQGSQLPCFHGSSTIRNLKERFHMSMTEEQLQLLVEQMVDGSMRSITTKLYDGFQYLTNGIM
UniProt P53350, whole entry: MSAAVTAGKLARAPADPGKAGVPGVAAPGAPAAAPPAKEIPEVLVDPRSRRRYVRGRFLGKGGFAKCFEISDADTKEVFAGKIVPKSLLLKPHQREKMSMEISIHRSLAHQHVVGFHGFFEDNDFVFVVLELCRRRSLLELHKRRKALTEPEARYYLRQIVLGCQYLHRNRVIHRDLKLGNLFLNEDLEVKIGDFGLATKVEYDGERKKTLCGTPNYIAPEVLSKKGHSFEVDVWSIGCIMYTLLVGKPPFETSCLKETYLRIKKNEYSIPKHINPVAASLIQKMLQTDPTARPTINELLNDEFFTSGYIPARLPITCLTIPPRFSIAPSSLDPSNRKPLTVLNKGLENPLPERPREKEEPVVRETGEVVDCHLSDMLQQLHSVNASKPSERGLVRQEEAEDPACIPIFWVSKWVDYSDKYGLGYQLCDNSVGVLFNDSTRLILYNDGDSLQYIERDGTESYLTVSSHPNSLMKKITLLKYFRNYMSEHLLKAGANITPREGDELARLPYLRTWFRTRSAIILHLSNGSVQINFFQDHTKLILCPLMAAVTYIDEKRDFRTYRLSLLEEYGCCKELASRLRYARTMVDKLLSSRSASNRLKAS

What was measured:
Experiment in all cases: number of time points (of 5) at which kinase-Nluc abundance scored as decreased, DMSO-normalised (count); higher = more persistent destabilization
Conditions in all cases: K562; 2-18 h
NTRK3 = NTRK3 (UniProt Q16288)
PAK4 = PAK4 (UniProt O96013)
PBK = PBK (UniProt Q96KB5)
PDGFRB = PDGFRB (UniProt P09619)
PDK1 = PDK1 (UniProt Q15118)
PDPK1 = PDPK1 (UniProt O15530)
PIK4CA = PIK4CA (UniProt P42356)
PIK4CB = PIK4CB (UniProt Q9UBF8)
PLK1 = PLK1 (UniProt P53350)
PRKAA1 = PRKAA1 (UniProt Q13131)

Measured: number of time points

CC(C)(C[C@H](N)C(=O)O)C(F)F [NV-5138 (hydrochloride)] (10 µM)
0: all assays above

Nc1c(C(=O)NCc2ccc(C(=O)NCCCC3CCCCC3)cc2)cnn1-c1ccccc1 (2.5 µM)
0: all assays above

C=CC(=O)N1C(=O)CC(c2ccc(F)cc2)Sc2ccccc21 (stereo not drawn) [GSK-3β inhibitor 3] (10 µM)
0: all assays above

CNc1cc(Nc2cccn(-c3ccccn3)c2=O)nn2c(C(=O)N[C@@H]3C[C@@H]3F)cnc12 (2.5 µM)
0: all assays above

Nc1ncnc2c1c(-c1ccc(Oc3ccccc3)cc1)nn2C1CCN(CCOCCOCCOc2ccc3c(c2)CN(C2CCC(=O)NC2=O)C3=O)CC1 (stereo not given) (2.5 µM)
0: all assays above

CC(C)=CC(=O)O[C@H]1Cc2cc3ccc(=O)oc3cc2OC1(C)C [Decursin] (10 µM)
0: all assays above

COc1cc(N2CCOCC2)ccc1Nc1ncc(Cl)c(Nc2ccccc2NS(C)(=O)=O)n1 (2.5 µM)
0: all assays above

C[C@@H]1CCNC(=O)c2cc3ccc(C(=O)Nc4nc5ccccc5n4CCCN(C)C)cc3n21 (10 µM)
0: all assays above

CC(C)(O)[C@H]1CC[C@H](Nc2ccc3ncc(-c4cccc(C(F)(F)F)c4)n3n2)CC1 (10 µM)
0: all assays above

In the list so far, these contain fluorine:
CC(C)(C[C@H](N)C(=O)O)C(F)F [NV-5138 (hydrochloride)] (10 µM)
0: all assays above

C=CC(=O)N1C(=O)CC(c2ccc(F)cc2)Sc2ccccc21 (stereo not drawn) [GSK-3β inhibitor 3] (10 µM)
0: all assays above

CNc1cc(Nc2cccn(-c3ccccn3)c2=O)nn2c(C(=O)N[C@@H]3C[C@@H]3F)cnc12 (2.5 µM)
0: all assays above

CC(C)(O)[C@H]1CC[C@H](Nc2ccc3ncc(-c4cccc(C(F)(F)F)c4)n3n2)CC1 (10 µM)
0: all assays above

(further entries)

O=C(Nc1nc(=O)n(Cc2ccc(Cl)cc2)s1)c1ccc(Cl)cc1 (10 µM)
0: all assays above

CN1CCC(c2ccccc2CC(C)(C)Nc2nc(N3CCOCC3)nc(-n3c(C(F)F)nc4ccccc43)n2)CC1 [Zandelisib] (10 µM)
0: all assays above

O=C1O[C@H]([C@@H](O)CO)C(O)=C1OP(=O)(O)O [2-Phospho-L-ascorbic acid (trisodium)] (10 µM)
0: all assays above

CN(c1ccc(NC(=O)Nc2ccc(OC(F)(F)F)cc2)cc1)c1ccnc(Nc2cccc(S(N)(=O)=O)c2)n1 (2.5 µM)
2: PIK4CA
1: NTRK3 | PLK1 | PRKAA1
3: PDGFRB | PDPK1 | PIK4CB
0: all other assays above

Cc1cccc2c3c(ccc12)C(=O)C1=C(OCC1C)C3=O (stereo not given) [Dihydroisotanshinone I] (2.5 µM)
0: all assays above

Cc1cccc(-c2[nH]c(C(C)(C)C)nc2-c2ccc3nccnc3c2)n1 (10 µM)
0: all assays above

O=Nc1c2[nH]c3ccccc3nc-2c2ccccc12 [IQ-1S (free acid)] (2.5 µM)
0: all assays above

c1ccc(-c2nc3c(c(-n4ccc5cnccc54)n2)CCC3)nc1 (10 µM)
0: all assays above

COc1ccc(S(=O)(=O)NCc2ccc(C(=O)NCCc3ccc(Cl)cn3)cc2)cc1 (10 µM)
0: all assays above

Cc1nn(C)c2c1C(c1ccc(C(F)(F)F)cc1)C(C#N)=C(N)O2 (stereo not given) (10 µM)
0: all assays above
